# From the supplement of paper PMC10849652
# Sequences of proteins named here, by UniProt entry; tags and fusion partners are left off. A change or cut given only in a name is not applied to a line headed by its entry.
# UniProt Q9H444: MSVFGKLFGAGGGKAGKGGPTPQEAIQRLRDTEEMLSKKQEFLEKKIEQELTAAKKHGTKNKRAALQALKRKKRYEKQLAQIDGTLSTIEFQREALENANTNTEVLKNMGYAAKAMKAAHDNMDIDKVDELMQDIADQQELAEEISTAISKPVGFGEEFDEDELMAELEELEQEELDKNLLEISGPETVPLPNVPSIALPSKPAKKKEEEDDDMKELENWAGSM
# UniProt Q8WUX2: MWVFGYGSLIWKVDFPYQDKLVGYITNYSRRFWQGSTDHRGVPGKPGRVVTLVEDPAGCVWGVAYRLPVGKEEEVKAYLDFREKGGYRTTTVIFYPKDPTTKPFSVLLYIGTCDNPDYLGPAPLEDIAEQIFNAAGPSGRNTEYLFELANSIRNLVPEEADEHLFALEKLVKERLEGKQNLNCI
# UniProt Q13112, whole entry, looked up: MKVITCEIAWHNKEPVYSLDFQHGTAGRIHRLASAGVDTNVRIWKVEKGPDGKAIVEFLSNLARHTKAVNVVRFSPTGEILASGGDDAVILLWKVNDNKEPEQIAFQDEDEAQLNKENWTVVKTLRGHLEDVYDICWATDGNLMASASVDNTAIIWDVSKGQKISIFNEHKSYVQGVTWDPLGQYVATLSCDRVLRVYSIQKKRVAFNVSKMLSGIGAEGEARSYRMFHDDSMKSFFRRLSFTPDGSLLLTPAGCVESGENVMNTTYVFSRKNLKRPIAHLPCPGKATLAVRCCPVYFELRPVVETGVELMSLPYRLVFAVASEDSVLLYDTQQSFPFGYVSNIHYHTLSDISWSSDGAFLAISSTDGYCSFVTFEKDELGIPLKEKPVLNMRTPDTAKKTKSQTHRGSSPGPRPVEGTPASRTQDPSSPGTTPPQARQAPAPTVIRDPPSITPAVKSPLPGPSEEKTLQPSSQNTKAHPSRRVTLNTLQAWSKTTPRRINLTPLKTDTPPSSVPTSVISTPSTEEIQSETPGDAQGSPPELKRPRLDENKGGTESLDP
# UniProt Q9BY43: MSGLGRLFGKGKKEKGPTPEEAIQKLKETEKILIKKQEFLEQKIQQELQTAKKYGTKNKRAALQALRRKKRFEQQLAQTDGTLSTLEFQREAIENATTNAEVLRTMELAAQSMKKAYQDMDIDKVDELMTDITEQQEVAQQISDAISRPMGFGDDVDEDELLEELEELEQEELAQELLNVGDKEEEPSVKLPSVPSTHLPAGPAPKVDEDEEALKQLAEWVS
# UniProt P60953, whole entry, looked up: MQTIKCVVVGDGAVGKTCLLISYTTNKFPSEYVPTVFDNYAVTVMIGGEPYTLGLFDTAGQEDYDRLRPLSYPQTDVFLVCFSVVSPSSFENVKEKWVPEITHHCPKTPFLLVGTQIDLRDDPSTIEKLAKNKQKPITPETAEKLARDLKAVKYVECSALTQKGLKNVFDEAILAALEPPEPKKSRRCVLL
# UniProt Q9NRR8: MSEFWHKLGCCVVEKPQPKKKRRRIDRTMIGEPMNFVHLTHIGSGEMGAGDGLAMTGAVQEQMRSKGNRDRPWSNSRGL
# UniProt P50750, whole entry, looked up: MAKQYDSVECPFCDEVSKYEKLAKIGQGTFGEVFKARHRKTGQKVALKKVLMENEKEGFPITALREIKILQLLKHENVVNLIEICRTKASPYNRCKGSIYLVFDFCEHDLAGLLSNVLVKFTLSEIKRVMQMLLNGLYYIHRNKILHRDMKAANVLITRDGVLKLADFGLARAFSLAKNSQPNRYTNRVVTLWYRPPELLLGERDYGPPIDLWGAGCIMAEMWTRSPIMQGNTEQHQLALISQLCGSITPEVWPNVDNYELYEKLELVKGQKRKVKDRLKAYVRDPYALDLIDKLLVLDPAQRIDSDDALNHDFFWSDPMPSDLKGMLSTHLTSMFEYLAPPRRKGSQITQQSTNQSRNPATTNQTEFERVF
# UniProt Q14839: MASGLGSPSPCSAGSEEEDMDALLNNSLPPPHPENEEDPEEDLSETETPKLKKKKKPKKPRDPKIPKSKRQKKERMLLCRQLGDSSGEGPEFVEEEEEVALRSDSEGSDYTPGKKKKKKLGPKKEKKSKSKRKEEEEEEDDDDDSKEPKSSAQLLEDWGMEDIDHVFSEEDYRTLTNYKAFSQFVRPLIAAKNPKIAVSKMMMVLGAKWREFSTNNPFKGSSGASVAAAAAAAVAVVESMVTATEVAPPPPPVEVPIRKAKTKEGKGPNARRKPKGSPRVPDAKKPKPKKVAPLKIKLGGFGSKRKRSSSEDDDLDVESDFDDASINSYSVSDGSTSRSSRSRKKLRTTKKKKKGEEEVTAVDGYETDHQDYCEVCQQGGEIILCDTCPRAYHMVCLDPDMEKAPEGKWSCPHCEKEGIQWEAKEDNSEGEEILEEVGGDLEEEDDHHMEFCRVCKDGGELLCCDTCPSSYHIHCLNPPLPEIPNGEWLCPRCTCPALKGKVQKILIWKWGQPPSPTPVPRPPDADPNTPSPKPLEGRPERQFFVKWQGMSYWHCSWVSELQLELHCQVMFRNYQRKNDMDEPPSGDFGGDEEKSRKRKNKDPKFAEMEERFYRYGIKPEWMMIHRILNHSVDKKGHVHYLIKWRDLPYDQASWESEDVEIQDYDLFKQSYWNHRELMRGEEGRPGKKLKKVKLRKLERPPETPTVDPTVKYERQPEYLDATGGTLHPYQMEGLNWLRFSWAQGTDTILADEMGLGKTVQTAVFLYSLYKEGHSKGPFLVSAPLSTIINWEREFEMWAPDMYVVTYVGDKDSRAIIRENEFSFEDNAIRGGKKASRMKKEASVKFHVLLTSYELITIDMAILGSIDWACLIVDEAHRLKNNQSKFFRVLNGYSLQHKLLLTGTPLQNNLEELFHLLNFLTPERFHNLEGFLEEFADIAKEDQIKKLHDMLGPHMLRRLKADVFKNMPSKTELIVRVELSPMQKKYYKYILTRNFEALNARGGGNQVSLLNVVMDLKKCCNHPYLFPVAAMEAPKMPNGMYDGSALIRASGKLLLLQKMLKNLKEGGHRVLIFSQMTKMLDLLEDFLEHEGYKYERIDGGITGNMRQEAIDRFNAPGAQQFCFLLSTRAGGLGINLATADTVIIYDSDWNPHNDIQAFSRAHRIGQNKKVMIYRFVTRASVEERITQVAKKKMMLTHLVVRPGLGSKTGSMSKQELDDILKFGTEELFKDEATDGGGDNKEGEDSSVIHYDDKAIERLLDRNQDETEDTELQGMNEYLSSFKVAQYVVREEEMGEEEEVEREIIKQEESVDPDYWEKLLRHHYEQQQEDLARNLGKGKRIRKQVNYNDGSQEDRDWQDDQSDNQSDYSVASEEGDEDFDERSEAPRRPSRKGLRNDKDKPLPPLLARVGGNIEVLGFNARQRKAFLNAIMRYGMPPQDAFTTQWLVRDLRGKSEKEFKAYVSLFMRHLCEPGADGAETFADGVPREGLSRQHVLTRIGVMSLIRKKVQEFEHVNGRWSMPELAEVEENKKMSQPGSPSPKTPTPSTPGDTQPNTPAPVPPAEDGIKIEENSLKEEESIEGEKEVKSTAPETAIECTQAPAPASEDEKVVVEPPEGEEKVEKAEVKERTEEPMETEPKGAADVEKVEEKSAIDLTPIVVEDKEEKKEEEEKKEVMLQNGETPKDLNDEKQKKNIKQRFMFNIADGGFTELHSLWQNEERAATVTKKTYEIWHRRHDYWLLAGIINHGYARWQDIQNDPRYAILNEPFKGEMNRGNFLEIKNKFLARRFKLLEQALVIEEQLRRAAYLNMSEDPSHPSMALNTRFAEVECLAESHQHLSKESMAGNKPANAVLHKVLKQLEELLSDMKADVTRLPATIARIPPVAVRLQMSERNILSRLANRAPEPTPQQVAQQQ
# UniProt P11802: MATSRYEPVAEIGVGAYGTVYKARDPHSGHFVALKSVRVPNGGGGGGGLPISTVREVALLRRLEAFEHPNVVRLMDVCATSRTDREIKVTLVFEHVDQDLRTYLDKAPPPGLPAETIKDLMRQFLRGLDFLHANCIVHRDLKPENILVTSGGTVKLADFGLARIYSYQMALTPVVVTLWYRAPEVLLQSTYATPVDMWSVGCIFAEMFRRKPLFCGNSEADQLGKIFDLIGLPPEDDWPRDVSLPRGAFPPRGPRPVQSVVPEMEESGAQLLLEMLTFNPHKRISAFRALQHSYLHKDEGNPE
# UniProt Q9BWS9: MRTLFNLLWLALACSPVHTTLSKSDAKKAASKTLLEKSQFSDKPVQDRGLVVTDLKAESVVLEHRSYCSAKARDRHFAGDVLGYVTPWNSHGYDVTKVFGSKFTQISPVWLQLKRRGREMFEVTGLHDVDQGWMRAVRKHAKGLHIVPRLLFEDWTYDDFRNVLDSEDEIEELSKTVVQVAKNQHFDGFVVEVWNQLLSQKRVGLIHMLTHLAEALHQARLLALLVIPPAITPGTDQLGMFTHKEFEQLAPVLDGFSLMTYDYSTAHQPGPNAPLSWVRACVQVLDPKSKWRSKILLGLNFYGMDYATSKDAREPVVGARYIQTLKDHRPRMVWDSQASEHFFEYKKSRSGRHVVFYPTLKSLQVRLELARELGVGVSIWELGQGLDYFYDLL
# UniProt Q9UKJ5: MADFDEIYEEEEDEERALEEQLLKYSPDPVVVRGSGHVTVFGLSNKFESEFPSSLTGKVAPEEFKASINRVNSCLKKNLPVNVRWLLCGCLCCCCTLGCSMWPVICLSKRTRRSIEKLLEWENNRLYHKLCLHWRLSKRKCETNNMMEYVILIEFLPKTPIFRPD
# UniProt Q7LBR1: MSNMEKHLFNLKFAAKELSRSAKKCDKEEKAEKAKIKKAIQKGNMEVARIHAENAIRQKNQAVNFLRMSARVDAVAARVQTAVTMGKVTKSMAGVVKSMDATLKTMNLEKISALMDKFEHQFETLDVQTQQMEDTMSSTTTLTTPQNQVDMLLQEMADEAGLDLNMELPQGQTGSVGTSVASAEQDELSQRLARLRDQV
# UniProt Q00536: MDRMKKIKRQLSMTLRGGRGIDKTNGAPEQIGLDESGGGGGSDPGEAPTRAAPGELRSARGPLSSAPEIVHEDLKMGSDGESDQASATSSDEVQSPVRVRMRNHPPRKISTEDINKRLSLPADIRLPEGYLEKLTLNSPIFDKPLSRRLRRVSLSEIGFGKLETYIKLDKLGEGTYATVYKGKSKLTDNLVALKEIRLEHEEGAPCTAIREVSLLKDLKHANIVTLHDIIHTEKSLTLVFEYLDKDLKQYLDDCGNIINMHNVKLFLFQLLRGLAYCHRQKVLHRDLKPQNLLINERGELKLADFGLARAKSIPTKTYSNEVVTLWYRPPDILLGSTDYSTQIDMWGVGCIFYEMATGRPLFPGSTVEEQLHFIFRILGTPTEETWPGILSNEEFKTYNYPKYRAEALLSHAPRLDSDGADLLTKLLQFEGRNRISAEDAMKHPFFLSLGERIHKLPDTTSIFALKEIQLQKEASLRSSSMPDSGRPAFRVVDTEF
# UniProt P46527, whole entry, looked up: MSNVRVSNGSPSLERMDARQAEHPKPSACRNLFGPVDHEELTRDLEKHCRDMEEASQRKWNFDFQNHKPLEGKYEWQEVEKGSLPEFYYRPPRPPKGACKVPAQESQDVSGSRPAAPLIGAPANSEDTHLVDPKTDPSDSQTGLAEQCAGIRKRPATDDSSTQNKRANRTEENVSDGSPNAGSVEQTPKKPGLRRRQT
# UniProt P23528, whole entry, looked up: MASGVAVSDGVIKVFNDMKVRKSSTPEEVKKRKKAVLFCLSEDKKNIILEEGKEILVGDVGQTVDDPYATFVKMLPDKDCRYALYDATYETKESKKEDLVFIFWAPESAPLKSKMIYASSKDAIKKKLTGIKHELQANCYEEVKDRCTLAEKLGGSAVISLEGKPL
# UniProt Q9Y6H1: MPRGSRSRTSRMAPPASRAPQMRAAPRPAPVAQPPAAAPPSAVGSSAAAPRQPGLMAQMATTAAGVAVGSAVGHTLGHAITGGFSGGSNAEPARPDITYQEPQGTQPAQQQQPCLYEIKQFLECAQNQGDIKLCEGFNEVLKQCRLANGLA
# UniProt Q00537: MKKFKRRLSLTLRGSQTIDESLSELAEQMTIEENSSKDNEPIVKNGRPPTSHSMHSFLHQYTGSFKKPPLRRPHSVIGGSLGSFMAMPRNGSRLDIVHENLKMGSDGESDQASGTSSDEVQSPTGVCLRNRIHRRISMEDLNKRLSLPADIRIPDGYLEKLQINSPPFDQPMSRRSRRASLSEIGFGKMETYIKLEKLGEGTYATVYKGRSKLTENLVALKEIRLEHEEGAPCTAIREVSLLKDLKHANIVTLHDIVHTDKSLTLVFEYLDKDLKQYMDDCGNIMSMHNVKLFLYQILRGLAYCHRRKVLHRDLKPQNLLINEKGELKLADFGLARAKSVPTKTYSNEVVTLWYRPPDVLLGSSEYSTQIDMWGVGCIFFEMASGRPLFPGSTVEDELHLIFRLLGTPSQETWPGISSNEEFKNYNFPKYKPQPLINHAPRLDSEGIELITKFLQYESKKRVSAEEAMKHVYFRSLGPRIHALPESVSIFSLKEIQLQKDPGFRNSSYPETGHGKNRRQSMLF
# UniProt O14735: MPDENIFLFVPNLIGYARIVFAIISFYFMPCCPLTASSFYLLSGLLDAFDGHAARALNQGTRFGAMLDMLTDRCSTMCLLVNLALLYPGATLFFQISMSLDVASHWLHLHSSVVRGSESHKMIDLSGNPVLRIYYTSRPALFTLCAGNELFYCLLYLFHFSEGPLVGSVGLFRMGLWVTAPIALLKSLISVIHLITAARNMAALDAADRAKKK
# The other results are listed elsewhere or left out.
# Legend:
# Experiment in all cases: log2 fold change, soluble protein after heating vs DMSO (PISA); higher = thermal stabilisation; K562 cells, 10 uM, 30 min; active = over 0.2 and 3.5 SD of the protein, either way, in both replicates (recomputed)
# [1] = compound: C1=CC=C(C=C1)[C@H](COC2=CC3=C(C=C2)NC(=O)N3)NC(=O)C4=CC=CN(C4=O)CC5=CC(=C(C=C5)F)F
# Outline: (§1)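 Aliquots of K562 cells (2×10^6 cells/mL) treated with 10 μM compound for 30 min were heated for 3 min over 48°C-58°C. After pooling and extraction in PBS with 0.5% NP-40 at 4°C, soluble protein from a 21,000xg, 90 min spin was quantified by TMTpro 16plex LC-MS/MS with channel sums equalised. Thermal stability is expressed against control samples, from duplicates, as a log2 fold change.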
# [2] = compound: CC1=C(SC2=C1C(=N[C@H](C3=NN=C(N32)C)CC(=O)N)C4=CC=C(C=C4)Cl)C
# Outline: as §1
# [3] = compound: CC1=C2C(=CC=C1)N=C(N(C2=O)C3=CC=CC=C3C)CN4C=NC5=C(N=CN=C54)N
# Outline: as §1
# [4] = compound: Cc1sc2c(c1C)C(c1ccc(Cl)cc1)=N[C@@H](CC(=O)OC(C)(C)C)c1nnc(C)n1-2
# Outline: as §1
# [5] = compound: c1ccc([C@@H]2C[C@H]2NC2CCNCC2)cc1
# Outline: as §1
Target,log2 fold change [1],log2 fold change [2],log2 fold change [3],log2 fold change [4],log2 fold change [5]
CHMP4B (UniProt Q9H444),inactive: -0.015,inactive: -0.004,inactive: 0.031,inactive: 0.056,inactive: 0.054
CHCHD3 (UniProt Q9NX63),inactive: -0.005,inactive: 0.016,inactive: 0.054,inactive: -0.021,inactive: -0.03
CHAC2 (UniProt Q8WUX2),inactive: -0.036,inactive: -0.034,inactive: -0.034,inactive: 0.008,inactive: 0.027
CDKN2C (UniProt P42773),inactive: -0.015,inactive: 0.312,inactive: 0.077,inactive: -0.057,inactive: -0.171
CHMP4C (UniProt Q96CF2),inactive: -0.002,inactive: 0.169,inactive: 0.045,inactive: 0.051,inactive: 0.03
CDS2 (UniProt O95674),inactive: -0.015,inactive: 0.063,inactive: -0.029,inactive: -0.087,inactive: -0.025
CDC73 (UniProt Q6P1J9),inactive: -0.098,inactive: -0.572,inactive: 0.059,inactive: 0.023,inactive: -0.217
CENPH (UniProt Q9H3R5),inactive: 0.009,inactive: -0.208,inactive: -0.029,inactive: 0.027,inactive: -0.035
CHD3 isoform 3 (UniProt Q12873),inactive: -0.104,inactive: 0.038,inactive: 0.069,inactive: -0.038,inactive: 0.087
CHMP3 (UniProt Q9Y3E7),inactive: -0.016,inactive: 0.073,inactive: 0.115,inactive: -0.015,inactive: -0.039
CHAF1B (UniProt Q13112),inactive: 0.034,inactive: 0.017,inactive: 0.039,inactive: -0.028,inactive: 0.02
CHMP4A isoform 2 (UniProt Q9BY43),inactive: -0.011,inactive: 0.035,inactive: 0.005,inactive: 0.031,inactive: 0.04
CDC42 (UniProt P60953),inactive: 0.074,inactive: -0.001,inactive: -0.04,inactive: -0.009,inactive: -0.033
CDC42SE1 (UniProt Q9NRR8),inactive: -0.151,inactive: 0.016,inactive: 0.088,inactive: -0.076,inactive: -0.007
CDCA3 (UniProt Q99618),inactive: 0.009,inactive: -0.066,inactive: 0.027,inactive: 0,inactive: 0.025
CDK7 (UniProt P50613),inactive: 0.009,inactive: 0.004,inactive: 0.011,inactive: 0.028,inactive: 0.054
CDSN (UniProt Q15517),inactive: -0.089,inactive: 0.182,inactive: -0.454,inactive: -0.336,inactive: 0.122
CDK9 isoform 2 (UniProt P50750),inactive: -0.007,inactive: -0.03,inactive: 0,inactive: 0.089,inactive: 0
CEP44 (UniProt Q9C0F1),inactive: -0.069,inactive: -0.082,inactive: -0.007,inactive: -0.066,inactive: 0.033
CHD4 isoform 2 (UniProt Q14839),inactive: -0.065,inactive: 0,inactive: 0.021,inactive: 0.049,inactive: 0.032
CDK4 (UniProt P11802),inactive: 0.012,inactive: 0.128,inactive: 0.119,–,inactive: -0.165
CHCHD4 isoform 2 (UniProt Q8N4Q1),inactive: 0.08,inactive: 0.205,inactive: -0.006,active: -0.489,inactive: -0.113
CHID1 (UniProt Q9BWS9),inactive: 0.034,inactive: -0.024,inactive: -0.021,inactive: 0.005,inactive: -0.025
CENPK (UniProt Q9BS16),inactive: 0.013,inactive: -0.162,inactive: -0.093,–,inactive: -0.255
CHIC2 (UniProt Q9UKJ5),inactive: -0.072,inactive: 0.052,inactive: -0.021,–,inactive: -0.052
CDC42 isoform 1 (UniProt P60953),inactive: -0.007,inactive: -0.001,inactive: 0,inactive: 0.03,inactive: 0.037
CHMP1B (UniProt Q7LBR1),inactive: -0.076,inactive: 0.021,inactive: 0.012,inactive: 0,inactive: -0.011
CEBPB (UniProt P17676),inactive: 0.09,inactive: 0.222,–,inactive: 0.062,inactive: -0.045

# Pulled one by one from above, two records:
Target,log2 fold change [1],log2 fold change [2],log2 fold change [3],log2 fold change [4],log2 fold change [5]
CHMP3 (UniProt Q9Y3E7),inactive: -0.016,inactive: 0.073,inactive: 0.115,inactive: -0.015,inactive: -0.039
CDKN2C (UniProt P42773),inactive: -0.015,inactive: 0.312,inactive: 0.077,inactive: -0.057,inactive: -0.171

# The listing continues:

Target,log2 fold change [1],log2 fold change [2],log2 fold change [3],log2 fold change [4],log2 fold change [5]
CENPO (UniProt Q9BU64),inactive: -0.125,inactive: 0.01,inactive: 0.199,inactive: -0.169,inactive: -0.036
CDK5RAP1 (UniProt Q96SZ6),inactive: 0.056,inactive: 0.029,inactive: 0.149,inactive: 0.028,inactive: -0.023
CDK16 isoform 2 (UniProt Q00536),inactive: -0.009,inactive: 0.026,inactive: 0.043,inactive: -0.014,inactive: -0.074
CDK6 (UniProt Q00534),inactive: -0.005,inactive: -0.002,inactive: 0.005,inactive: -0.036,inactive: -0.055
CENPF (UniProt P49454),inactive: 0.021,inactive: -0.027,inactive: 0.007,inactive: 0.002,inactive: 0.041
CES2 isoform 4 (UniProt O00748),inactive: 0.041,inactive: -0.069,inactive: 0.061,inactive: 0.118,inactive: -0.141
CDK13 (UniProt Q14004),inactive: 0.031,inactive: 0.019,inactive: -0.017,inactive: 0.161,inactive: -0.004
CDKN1B (UniProt P46527),inactive: -0.009,inactive: -0.029,inactive: -0.036,–,inactive: -0.004
CFB (UniProt P00751),inactive: -0.029,inactive: -0.014,inactive: 0.079,–,inactive: 0.011
CFAP298 (UniProt P57076),inactive: -0.032,inactive: -0.053,inactive: 0.133,inactive: 0.122,inactive: 0
CENPP (UniProt Q6IPU0),inactive: 0.021,inactive: -0.052,–,inactive: 0.021,inactive: 0.115
CDK2AP2 (UniProt O75956),inactive: 0.026,inactive: -0.017,–,–,inactive: 0.012
CFAP36 isoform 2 (UniProt Q96G28),inactive: -0.042,inactive: 0.01,active: 0.383,inactive: -0.009,inactive: -0.158
CEP135 (UniProt Q66GS9),inactive: 0.025,inactive: 0.233,–,–,inactive: 0.038
CFL1 (UniProt P23528),inactive: -0.024,inactive: -0.007,inactive: -0.039,inactive: -0.052,inactive: -0.036
CELF2 isoform 3 (UniProt O95319),inactive: -0.005,inactive: 0.119,inactive: 0.013,inactive: 0.071,inactive: -0.014
CDS1 (UniProt Q92903),inactive: -0.029,inactive: -0.103,–,–,inactive: -0.204
CHCHD2 (UniProt Q9Y6H1),inactive: -0.016,inactive: 0.082,inactive: -0.007,inactive: -0.065,inactive: -0.011
CERS6 isoform 2 (UniProt Q6ZMG9),inactive: 0.006,inactive: 0.058,inactive: -0.046,inactive: -0.051,inactive: 0.016
CHCHD7 isoform 4 (UniProt Q9BUK0),inactive: -0.042,inactive: 0.151,inactive: -0.273,inactive: 0.042,inactive: 0.136
CHCHD6 (UniProt Q9BRQ6),inactive: 0.242,inactive: 0.446,inactive: 0.262,inactive: 0.012,inactive: 0.05
CDK17 isoform 2 (UniProt Q00537),inactive: -0.095,inactive: -0.006,inactive: -0.049,–,inactive: -0.083
CDIPT (UniProt O14735),inactive: 0.013,inactive: -0.005,inactive: 0.01,inactive: -0.019,inactive: 0.09
CHCHD1 (UniProt Q96BP2),inactive: 0.07,inactive: -0.056,inactive: -0.031,inactive: 0.168,inactive: 0.021
CHKA (UniProt P35790),inactive: -0.055,inactive: -0.023,inactive: 0.124,inactive: -0.004,inactive: 0.19
CEP152 (UniProt O94986),inactive: -0.034,–,inactive: 0.024,inactive: 0.142,–
CDC42EP2 (UniProt O14613),inactive: 0.258,–,–,inactive: 0.011,–

# Already shown: an excerpt of the list.
Target,log2 fold change [1],log2 fold change [2],log2 fold change [3],log2 fold change [4],log2 fold change [5]
CENPO (UniProt Q9BU64),inactive: -0.125,inactive: 0.01,inactive: 0.199,inactive: -0.169,inactive: -0.036
CDK5RAP1 (UniProt Q96SZ6),inactive: 0.056,inactive: 0.029,inactive: 0.149,inactive: 0.028,inactive: -0.023
